The values that follow are results of earlier work, collected in publication PMC8764166, “Phenolic-Rich Plant Extracts With Antimicrobial Activity: An Alternative to Food Preservatives and Biocides?” (Frontiers in Microbiology, 2022).

For the series, the system named is S. aureus. On the set-up: method as in Liu et al., 2021b. The following applies: sub-inhibitory concentrations; ref Liu et al., 2021b.

Take `O=C(/C=C/c1ccc(O)cc1)OC1C(O)C(O)CC(O)(C(=O)O)C1O` (stereo not drawn) [3-p-trans-coumaroyl-2-hydroxyquinic acid]: the differentially expressed genes was 935 and the differentially expressed proteins is recorded as 438.
